For experiment [1], the target named is T1, SLR1 (BiFC fusion used with OsJAZ proteins; YFP half not stated) (rice (Oryza sativa)) (UniProt Q7G7J6).
T1 sequence: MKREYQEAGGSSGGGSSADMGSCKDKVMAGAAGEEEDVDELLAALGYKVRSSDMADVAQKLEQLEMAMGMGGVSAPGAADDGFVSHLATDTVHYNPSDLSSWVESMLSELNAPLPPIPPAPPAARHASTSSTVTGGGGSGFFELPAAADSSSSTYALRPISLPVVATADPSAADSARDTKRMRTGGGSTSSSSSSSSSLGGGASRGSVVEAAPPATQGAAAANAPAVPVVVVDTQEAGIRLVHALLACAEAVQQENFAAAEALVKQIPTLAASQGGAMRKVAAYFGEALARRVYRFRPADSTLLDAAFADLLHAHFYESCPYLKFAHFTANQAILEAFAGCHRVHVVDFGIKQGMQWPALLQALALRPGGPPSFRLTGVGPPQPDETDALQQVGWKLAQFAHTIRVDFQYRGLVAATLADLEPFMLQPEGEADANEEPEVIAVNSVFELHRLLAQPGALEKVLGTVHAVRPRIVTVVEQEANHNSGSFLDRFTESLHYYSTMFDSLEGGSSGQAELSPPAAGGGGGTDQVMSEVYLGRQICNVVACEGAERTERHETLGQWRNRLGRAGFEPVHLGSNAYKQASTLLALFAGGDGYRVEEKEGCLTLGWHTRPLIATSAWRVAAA
Kind of experiment: split reporter; BiFC; cYFP and nYFP fusions agro-infiltrated into N. benthamiana leaves, confocal microscopy at 48 h.

Experiment [2] concerns the target T2, SLR1-cYFP (rice (Oryza sativa)) (UniProt Q7G7J6).
T2 sequence: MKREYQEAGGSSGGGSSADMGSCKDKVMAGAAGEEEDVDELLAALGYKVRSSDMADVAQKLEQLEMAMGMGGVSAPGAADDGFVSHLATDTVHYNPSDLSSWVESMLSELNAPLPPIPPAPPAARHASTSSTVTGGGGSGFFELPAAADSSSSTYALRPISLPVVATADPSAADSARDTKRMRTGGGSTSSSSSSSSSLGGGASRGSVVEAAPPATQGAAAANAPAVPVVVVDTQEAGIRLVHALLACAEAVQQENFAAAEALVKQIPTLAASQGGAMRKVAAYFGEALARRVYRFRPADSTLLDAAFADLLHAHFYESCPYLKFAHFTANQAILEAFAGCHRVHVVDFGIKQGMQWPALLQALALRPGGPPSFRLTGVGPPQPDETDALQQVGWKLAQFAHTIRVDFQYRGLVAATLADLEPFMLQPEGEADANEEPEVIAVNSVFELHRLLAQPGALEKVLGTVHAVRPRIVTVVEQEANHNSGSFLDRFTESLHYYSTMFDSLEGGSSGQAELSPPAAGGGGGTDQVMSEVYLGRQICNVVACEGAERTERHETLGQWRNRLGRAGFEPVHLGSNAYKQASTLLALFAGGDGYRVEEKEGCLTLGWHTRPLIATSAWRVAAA
The description is as above.

For experiment [3], the target named is T3, GST-SLR1 (rice (Oryza sativa)) (UniProt Q7G7J6).
T3 sequence: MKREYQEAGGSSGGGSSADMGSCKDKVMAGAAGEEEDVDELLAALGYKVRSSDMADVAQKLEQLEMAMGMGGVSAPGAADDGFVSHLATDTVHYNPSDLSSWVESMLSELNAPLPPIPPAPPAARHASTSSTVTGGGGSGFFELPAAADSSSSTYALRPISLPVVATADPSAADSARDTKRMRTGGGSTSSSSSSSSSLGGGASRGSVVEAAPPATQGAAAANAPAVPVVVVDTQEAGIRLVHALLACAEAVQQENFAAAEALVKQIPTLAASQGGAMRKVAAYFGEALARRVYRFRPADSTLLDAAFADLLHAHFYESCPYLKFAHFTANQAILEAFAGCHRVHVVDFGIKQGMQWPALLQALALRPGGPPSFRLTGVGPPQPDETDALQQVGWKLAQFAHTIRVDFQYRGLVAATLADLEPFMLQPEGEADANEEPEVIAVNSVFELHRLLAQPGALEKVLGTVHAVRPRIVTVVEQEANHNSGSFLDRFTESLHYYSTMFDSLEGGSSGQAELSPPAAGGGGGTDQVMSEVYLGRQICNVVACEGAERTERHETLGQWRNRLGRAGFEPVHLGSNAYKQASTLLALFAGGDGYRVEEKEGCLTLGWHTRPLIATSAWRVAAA
Briefly: pull-down; GST-SLR1 on GST beads, in the absence of GA3; His-fusion viral protein; anti-GST and anti-His blots; both purified.

No constants are given. Whether binding was seen depends on the method and setting. Binding can be weak; no strength is given. Sequences can lack the tags named with a protein. For some assays here: In cells and extracts the contact can be indirect.

Regarding “OsJAZ3 (BiFC fusion; YFP half not stated) (rice (Oryza sativa))”, the binding result in experiment [1] is “binds”.

As to “M-nYFP (Rice stripe mosaic virus (RSMV))”, in experiment [2], the binding result is listed as “binds”.

As to P2-nYFP (Rice stripe virus (RSV)), the binding result in experiment [2] is reported as “binds”.

In the case of SP8-nYFP, the binding entry in experiment [2] is given as “binds”.

In the case of MBP-His-P2 (Rice stripe virus (RSV)), the binding entry in experiment [3] is given as “binds”.

For TF-His-SP8, in experiment [3], the binding entry is “binds”.

On to OsJAZ9-cYFP (rice (Oryza sativa)), for which the binding result in experiment [1] is “binds”.

For “OsJAZ4 (BiFC fusion; YFP half not stated) (rice (Oryza sativa))”, the binding result in experiment [1] was “binds”.

The values above are taken from paper PMC9663503, “Independently evolved viral effectors convergently suppress DELLA protein SLR1-mediated broad-spectrum antiviral immunity in rice” (Nature Communications, 2022).
